Patent US20070148663A1
These are yes or no findings as the source states them, for the method shown. In cells and extracts the contact can be indirect. Some results given as binding are weak or reduced against the parent protein; the word gives no strength. For part of these data: Tags and fused reporters may be left off the sequences shown. Blank lines part the entries; values can stand above or below the substance they belong to.

Chains of the proteins cited; added tags and fusions are not shown. Lines headed by an entry give the natural chain unless they say otherwise; changes in a name come on top. A line that says so, or that is headed by a name, gives the form on record, which may keep a tag or linker. Residues count along the entry.
GST-APC-C (amino acids 2167-2843) (P25054, residues 2167-2843): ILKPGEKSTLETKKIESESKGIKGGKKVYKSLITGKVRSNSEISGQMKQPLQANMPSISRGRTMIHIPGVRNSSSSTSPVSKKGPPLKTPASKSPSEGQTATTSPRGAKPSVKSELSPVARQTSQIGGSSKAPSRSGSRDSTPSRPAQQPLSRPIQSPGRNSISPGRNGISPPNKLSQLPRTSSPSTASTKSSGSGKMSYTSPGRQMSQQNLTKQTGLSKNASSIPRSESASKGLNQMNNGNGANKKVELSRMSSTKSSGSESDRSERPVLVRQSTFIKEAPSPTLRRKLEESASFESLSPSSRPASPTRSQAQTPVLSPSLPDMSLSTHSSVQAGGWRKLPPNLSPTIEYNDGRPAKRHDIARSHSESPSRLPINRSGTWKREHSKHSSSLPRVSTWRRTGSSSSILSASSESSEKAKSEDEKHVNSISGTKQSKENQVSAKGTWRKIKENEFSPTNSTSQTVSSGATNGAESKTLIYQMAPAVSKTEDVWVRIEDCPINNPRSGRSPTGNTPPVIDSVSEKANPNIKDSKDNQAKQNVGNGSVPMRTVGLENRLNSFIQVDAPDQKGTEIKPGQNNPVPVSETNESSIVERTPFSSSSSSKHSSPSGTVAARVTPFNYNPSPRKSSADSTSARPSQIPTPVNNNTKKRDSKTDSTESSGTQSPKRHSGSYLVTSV
GST-APC-basic (amino acids 2,167-2,674) (P25054, residues 2167-2674): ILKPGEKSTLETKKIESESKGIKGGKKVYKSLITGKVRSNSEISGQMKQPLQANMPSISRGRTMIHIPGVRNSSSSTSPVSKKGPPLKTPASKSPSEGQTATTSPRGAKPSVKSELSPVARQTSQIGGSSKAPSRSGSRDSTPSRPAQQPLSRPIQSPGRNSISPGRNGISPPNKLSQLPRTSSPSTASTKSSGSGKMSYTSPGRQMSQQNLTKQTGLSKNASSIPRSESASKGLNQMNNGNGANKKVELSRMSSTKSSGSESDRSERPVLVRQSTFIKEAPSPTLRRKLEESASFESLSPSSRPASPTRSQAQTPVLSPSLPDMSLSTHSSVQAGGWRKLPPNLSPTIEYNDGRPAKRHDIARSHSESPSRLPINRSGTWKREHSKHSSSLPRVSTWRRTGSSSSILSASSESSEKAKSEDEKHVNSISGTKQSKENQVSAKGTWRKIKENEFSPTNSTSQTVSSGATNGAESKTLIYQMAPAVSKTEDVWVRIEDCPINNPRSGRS
His-521-1040-mDia2 (purified recombinant protein) (Q9Z207, residues 521-1040): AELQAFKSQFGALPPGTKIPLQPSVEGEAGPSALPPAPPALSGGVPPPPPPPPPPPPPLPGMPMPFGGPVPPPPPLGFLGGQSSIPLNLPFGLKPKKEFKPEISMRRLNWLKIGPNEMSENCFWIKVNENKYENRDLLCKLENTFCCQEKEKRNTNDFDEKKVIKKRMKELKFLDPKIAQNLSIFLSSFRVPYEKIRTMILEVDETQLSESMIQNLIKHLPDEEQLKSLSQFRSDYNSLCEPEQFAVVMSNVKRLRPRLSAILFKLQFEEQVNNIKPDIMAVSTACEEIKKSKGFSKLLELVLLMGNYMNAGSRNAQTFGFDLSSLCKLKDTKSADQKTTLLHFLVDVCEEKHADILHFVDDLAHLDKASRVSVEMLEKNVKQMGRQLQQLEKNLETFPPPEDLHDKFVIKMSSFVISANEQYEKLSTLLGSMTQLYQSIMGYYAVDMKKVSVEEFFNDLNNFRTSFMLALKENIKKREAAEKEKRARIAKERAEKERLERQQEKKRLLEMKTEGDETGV
609-1,040-mDia2, in vitro transcribed and translated, 35S-labelled (Q9Z207, residues 609-1040): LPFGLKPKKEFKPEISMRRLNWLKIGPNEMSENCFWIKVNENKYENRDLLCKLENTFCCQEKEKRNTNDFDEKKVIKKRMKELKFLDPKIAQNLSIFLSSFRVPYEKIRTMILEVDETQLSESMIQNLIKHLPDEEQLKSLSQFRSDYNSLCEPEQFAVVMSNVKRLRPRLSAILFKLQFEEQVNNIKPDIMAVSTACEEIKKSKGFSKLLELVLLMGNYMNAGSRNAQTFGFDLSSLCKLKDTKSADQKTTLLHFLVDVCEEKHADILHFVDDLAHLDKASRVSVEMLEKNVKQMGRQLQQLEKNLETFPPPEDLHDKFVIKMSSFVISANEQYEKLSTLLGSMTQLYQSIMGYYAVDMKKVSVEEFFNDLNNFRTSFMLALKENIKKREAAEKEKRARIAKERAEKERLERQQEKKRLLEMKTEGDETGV
ΔGBDΔDADG(YEKR)-mDia2 (Q9Z207, form named): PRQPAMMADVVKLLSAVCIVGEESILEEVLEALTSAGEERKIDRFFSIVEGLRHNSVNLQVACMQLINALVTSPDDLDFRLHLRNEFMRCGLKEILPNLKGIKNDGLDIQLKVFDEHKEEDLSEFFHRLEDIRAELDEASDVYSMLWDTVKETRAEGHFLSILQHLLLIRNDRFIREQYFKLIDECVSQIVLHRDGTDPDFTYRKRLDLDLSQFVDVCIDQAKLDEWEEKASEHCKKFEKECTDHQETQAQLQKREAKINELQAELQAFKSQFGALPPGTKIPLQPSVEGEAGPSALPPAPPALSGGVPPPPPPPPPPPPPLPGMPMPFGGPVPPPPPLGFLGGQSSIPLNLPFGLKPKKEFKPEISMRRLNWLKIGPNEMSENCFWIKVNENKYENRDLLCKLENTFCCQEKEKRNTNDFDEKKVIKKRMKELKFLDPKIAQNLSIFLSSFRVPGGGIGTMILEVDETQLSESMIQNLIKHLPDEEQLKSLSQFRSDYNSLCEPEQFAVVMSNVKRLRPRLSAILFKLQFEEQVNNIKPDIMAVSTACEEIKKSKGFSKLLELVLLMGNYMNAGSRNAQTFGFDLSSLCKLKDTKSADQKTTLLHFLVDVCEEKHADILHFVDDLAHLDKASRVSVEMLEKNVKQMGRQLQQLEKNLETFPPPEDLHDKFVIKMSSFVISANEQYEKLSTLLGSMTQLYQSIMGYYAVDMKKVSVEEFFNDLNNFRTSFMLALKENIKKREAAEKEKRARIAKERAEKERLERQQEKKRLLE
UniProt O08808: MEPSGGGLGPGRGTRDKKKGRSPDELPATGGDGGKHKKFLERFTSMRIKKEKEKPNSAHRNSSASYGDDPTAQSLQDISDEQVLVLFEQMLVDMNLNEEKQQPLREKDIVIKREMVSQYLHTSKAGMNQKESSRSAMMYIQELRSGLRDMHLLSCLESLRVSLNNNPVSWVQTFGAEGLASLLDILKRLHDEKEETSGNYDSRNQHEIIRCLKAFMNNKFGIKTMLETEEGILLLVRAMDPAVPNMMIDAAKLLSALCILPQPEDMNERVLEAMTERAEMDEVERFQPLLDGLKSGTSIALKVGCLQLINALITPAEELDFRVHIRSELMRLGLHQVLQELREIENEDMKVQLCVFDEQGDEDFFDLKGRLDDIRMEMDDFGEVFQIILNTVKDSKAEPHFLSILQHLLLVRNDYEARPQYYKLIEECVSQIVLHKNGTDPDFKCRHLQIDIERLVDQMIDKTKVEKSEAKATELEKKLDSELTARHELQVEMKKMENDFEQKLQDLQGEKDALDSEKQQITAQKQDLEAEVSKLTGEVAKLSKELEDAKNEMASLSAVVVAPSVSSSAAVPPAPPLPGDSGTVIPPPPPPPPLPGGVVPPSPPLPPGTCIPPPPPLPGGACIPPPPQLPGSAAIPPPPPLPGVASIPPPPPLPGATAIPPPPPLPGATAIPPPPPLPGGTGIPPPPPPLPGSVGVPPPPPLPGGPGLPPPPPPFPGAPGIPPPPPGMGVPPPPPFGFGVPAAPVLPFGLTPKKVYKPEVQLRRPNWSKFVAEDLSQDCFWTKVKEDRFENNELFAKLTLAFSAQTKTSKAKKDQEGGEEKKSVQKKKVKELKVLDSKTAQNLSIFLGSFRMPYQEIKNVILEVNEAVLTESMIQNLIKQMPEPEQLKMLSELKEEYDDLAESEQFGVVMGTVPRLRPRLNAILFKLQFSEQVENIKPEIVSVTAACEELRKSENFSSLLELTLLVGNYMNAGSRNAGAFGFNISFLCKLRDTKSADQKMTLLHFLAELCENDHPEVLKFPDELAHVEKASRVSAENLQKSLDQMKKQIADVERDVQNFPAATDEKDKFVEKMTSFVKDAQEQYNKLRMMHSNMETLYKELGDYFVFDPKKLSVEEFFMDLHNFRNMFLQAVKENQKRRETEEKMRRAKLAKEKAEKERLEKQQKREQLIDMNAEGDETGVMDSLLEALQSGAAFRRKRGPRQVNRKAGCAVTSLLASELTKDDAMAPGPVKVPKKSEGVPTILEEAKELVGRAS

Columns and labels:
GST-EB1 (mouse) [1] = target: T1, GST-EB1 (mouse) (UniProt Q61166); test: GST pull-down of 35S-labelled in vitro translated protein, autoradiography
T1 sequence (looked up): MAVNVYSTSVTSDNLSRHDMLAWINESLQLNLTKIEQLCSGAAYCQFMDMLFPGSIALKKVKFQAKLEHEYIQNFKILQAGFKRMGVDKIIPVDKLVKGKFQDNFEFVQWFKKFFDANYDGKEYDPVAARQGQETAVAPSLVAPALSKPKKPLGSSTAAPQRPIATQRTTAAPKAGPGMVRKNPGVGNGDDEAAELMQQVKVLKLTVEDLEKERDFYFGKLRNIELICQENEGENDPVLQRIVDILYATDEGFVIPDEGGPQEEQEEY

[2] = target: GST-APC-C (amino acids 2167-2843) (UniProt P25054); test: as above
GST-EB1 (mouse) [3] = target: T1, GST-EB1 (mouse); test: direct binding of purified recombinant proteins, GST pull-down, anti-His western blot
GST-EB1 (mouse) [4] = target: T1, GST-EB1 (mouse); test: direct binding of purified recombinant proteins (0.3 µM each), GST pull-down, anti-His western blot
GST-EB1-N (mouse) = target: T2, GST-EB1-N (mouse) (UniProt Q61166); test: as above
T2 sequence (looked up): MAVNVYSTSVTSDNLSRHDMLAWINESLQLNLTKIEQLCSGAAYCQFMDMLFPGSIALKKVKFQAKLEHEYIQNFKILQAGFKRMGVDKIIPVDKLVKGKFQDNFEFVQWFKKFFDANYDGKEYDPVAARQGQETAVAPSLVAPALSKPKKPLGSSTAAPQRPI

[5] = target: GST-APC-C (amino acids 2167-2843) (UniProt P25054); test: as above
[6] = target: GST-APC-basic (amino acids 2,167-2,674) (UniProt P25054); test: as above
GST-EB1 (mouse) [7] = target: T1, GST-EB1 (mouse); test: GST pull-down from COS-7 lysates in the presence of DMSO, nocodazole or latrunculin A, anti-Flag western blot
[8] = target: GST-APC-C (amino acids 2167-2843) (UniProt P25054); test: as above

binding (GST-EB1 (mouse) [1]): binds | binding [2]: binds
Substance: 521-1040-mDia2 fragment, in vitro transcribed and translated, 35S-labelled (from UniProt Q9Z207 521-1040)

binding (GST-EB1 (mouse) [3]): binds | binding (GST-EB1 (mouse) [4]): binds | binding (GST-EB1-N (mouse)): binds | binding [5]: binds | binding [6]: binds
Substance: His-521-1040-mDia2 (purified recombinant protein) (from UniProt Q9Z207 521-1040)

binding [2]: binds
Substance: ΔGBDΔDADG(YEKR)-mDia2 (from UniProt Q9Z207 258-1030)

binding (GST-EB1 (mouse) [1]): binds | binding [2]: binds
Substance: 609-1,040-mDia2, in vitro transcribed and translated, 35S-labelled (from UniProt Q9Z207 609-1040)

binding (GST-EB1 (mouse) [7]): binds | binding [8]: binds
Substance: Flag-mDia1 (full-length mDia1) expressed in COS-7 cells (from UniProt O08808 1-1255)
